Over roughly 33,000 sequences, “E-score (-0.5 to 0.5)” has its median near -8e-05; the highest 2% begin near 0.23. The list shows a part of the results.
The sequences below were run against T1, Nrg2 (UniProt P38082) (assay: PBM E-score (8-mer binding enrichment) (E-score (-0.5 to 0.5)); higher = stronger / more preferred TF binding). Details: protein concentration: 100 nM; construct: GST-full length.
T1 sequence: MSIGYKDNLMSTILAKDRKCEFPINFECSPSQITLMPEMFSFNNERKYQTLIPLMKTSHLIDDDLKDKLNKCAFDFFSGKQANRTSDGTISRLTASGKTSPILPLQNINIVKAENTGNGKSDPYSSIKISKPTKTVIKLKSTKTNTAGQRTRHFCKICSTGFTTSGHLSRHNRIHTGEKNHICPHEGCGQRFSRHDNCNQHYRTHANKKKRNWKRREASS
Method in brief: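 Full-length yeast transcription factors or their DNA-binding domains, GST-tagged and expressed with PURExpress, were applied at about 100-200 nM to universal all-10-mer Agilent arrays. These arrays had been made double-stranded by primer extension on fresh or once-stripped slides. Detection used fluorescent anti-GST, normalisation used masliner, and E-scores for ungapped eight-base words pooled with reverse complements came from the Universal PBM Analysis Suite.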

Going from AGACCAGG to CAAGGGGG, the “PBM E-score” value falls from -0.0228 to -0.247.

Going from CCGTACAC to ATCTGGAA, the “PBM E-score” value rises from 0.0707 to 0.155.

First: AAGTGTGA
Second: GCCACGCA
The “PBM E-score” value of the first is higher: -0.0785 for the first, -0.207 for the second.

First: ACGAAGCC
Second: GACCACGA
The “PBM E-score” value of the first is lower: -0.0825 for the first, 0.11 for the second.

Going from ATGACGTG to CACGCGTA, the “PBM E-score” value falls from 0.0659 to -0.0726.

Compared with CTGTACCA, AATGCTGC is higher in “PBM E-score” value: -0.114 for the first, 0.0363 for the second.

First: ACACTAAG
Second: TCTATGCA
The “PBM E-score” value of the first is higher: -0.0286 for the first, -0.0741 for the second.

Going from GGAAAAAC to GTGCTAGA, the “PBM E-score” value falls from -0.00565 to -0.167.

Going from GCAGTGAC to GGCATTCA, the “PBM E-score” value rises from -0.0115 to 0.0471.

First: GACGGCGC
Second: AACTAGAT
The “PBM E-score” value of the first is lower: -0.0822 for the first, 0.029 for the second.

Going from AGCGCAAA to GAACATCC, the “PBM E-score” value falls from 0.136 to 0.123.

First: CCCATACC
Second: TACAGGTA
The “PBM E-score” value of the first is higher: -0.023 for the first, -0.0586 for the second.

Compared with CTGTCTCC, ACGCTCCT is lower in “PBM E-score” value: -0.0284 for the first, -0.157 for the second.

First: AAATCACT
Second: AGCGCATC
The “PBM E-score” value of the first is higher: 0.124 for the first, -0.0236 for the second.

Going from TGCTGAAA to ATGCCATG, the “PBM E-score” value rises from -0.129 to 0.0663.

Compared with CATCGCGG, AGGAATAT is higher in “PBM E-score” value: -0.0493 for the first, 0.101 for the second.

Compared with ATTAGGCA, CGAGACGA is higher in “PBM E-score” value: -0.035 for the first, -0.0266 for the second.

Compared with GGCGCCCC, AAACCGGC is higher in “PBM E-score” value: -0.0484 for the first, 0.00992 for the second.

First: CCTATCAC
Second: GCTTGCAC
The “PBM E-score” value of the first is higher: -0.00258 for the first, -0.0351 for the second.

First: GTGTATTA
Second: GGGAGAAA
The “PBM E-score” value of the first is higher: 0.233 for the first, -0.169 for the second.

Going from CCGGCTAG to GGCCACCC, the “PBM E-score” value rises from -0.289 to -0.0452.

First: CAGGTTGC
Second: AGTGCACT
The “PBM E-score” value of the first is higher: 0.0874 for the first, 0.0692 for the second.

Going from AGGCTGCA to ACTGAACT, the “PBM E-score” value rises from -0.185 to -0.00128.

Going from GACCTATA to GGACAGCC, the “PBM E-score” value falls from 0.134 to 0.0643.

First: GGCCGACA
Second: CGCAGCCC
The “PBM E-score” value of the first is lower: -0.12 for the first, -0.0608 for the second.

Compared with GCGCTAGC, AACCCTCA is higher in “PBM E-score” value: -0.213 for the first, -0.0647 for the second.

First: CGGCTTCC
Second: AGCGGCCG
The “PBM E-score” value of the first is lower: -0.138 for the first, 0.0314 for the second.

Compared with CGGCTGAA, ATCAATCA is higher in “PBM E-score” value: -0.00897 for the first, 0.0745 for the second.

Going from CACATTGG to CCTTCGGC, the “PBM E-score” value falls from 0.0656 to -0.249.

First: GCAAGACC
Second: CCGTGTGC
The “PBM E-score” value of the first is higher: -0.0464 for the first, -0.065 for the second.

Going from TAGGTTGA to ATCTGGAG, the “PBM E-score” value falls from 0.0344 to -0.0376.

Compared with GATCCATA, ACTGACTC is lower in “PBM E-score” value: 0.1 for the first, -0.0876 for the second.

First: GAACGCCA
Second: TGCTTGAA
The “PBM E-score” value of the first is lower: -0.00659 for the first, 0.0462 for the second.

Compared with ACCCGGTA, CTGGGTTA is lower in “PBM E-score” value: 0.0638 for the first, -0.0413 for the second.

First: CAAGTGAC
Second: CTGAGGTC
The “PBM E-score” value of the first is higher: -0.021 for the first, -0.0556 for the second.

Going from CCTCTTGC to GAGGTTCC, the “PBM E-score” value rises from -0.219 to 0.0217.

Compared with AAAGCTAT, CTGGAAGC is lower in “PBM E-score” value: -0.00544 for the first, -0.261 for the second.

First: AATGCACC
Second: CATAGAGC
The “PBM E-score” value of the first is higher: 0.0152 for the first, -0.132 for the second.

First: AATTAACC
Second: ATACGACA
The “PBM E-score” value of the first is lower: 0.0735 for the first, 0.0872 for the second.

Going from ATAAGAAT to AGCAACGC, the “PBM E-score” value falls from 0.135 to 0.0424.

Going from AAAGGCCA to ACCAGTAA, the “PBM E-score” value rises from 0.006 to 0.0806.

First: ACATTACA
Second: AAACTGTG
The “PBM E-score” value of the first is lower: -0.0449 for the first, 0.198 for the second.

First: GGCCTCAC
Second: AGGCGCTC
The “PBM E-score” value of the first is higher: -0.0963 for the first, -0.143 for the second.

Going from GATGACAA to GCGAACAC, the “PBM E-score” value falls from 0.186 to 0.0247.

Going from TAACTCAA to CCTTGCAG, the “PBM E-score” value falls from 0.0586 to -0.0165.

Going from ATATGCGA to ATCTGCTG, the “PBM E-score” value falls from 0.123 to -0.0833.

Going from CCAGGGGC to CTCCCCCA, the “PBM E-score” value falls from 0.0624 to -0.408.

First: CTCACCTC
Second: CCTCGGGC
The “PBM E-score” value of the first is higher: 0.0434 for the first, -0.0765 for the second.

First: AACGACGG
Second: CGCGAGTA
The “PBM E-score” value of the first is lower: 0.106 for the first, 0.15 for the second.

Compared with ACGGAGGA, CCACATTA is higher in “PBM E-score” value: -0.204 for the first, -0.0108 for the second.

Compared with CATTGTGA, ACCAGACA is lower in “PBM E-score” value: 0.156 for the first, -0.166 for the second.

Going from CTAGTCGA to GACCATGA, the “PBM E-score” value rises from -0.0659 to 0.0982.

Going from CTGAACCA to TGAATCCA, the “PBM E-score” value rises from 2e-05 to 0.122.

Compared with GTCCAAAA, AATCGTGC is higher in “PBM E-score” value: 0.0308 for the first, 0.138 for the second.

Compared with CAACGAGC, AAAAAGTC is higher in “PBM E-score” value: -0.0488 for the first, 0.00456 for the second.

Going from AACGACAT to TGCAGACA, the “PBM E-score” value rises from 0.111 to 0.121.

Going from CTTTCAGA to AAGGCTGC, the “PBM E-score” value falls from 0.0761 to -0.224.

Compared with CGACGGCG, CGCCAATA is higher in “PBM E-score” value: -0.0449 for the first, 0.111 for the second.

Going from ACTTACCT to AATGCCTA, the “PBM E-score” value falls from -0.159 to -0.162.

Going from GAAGTAAA to TCATGGGA, the “PBM E-score” value falls from 0.00087 to -0.0411.

Going from AGTGAGAC to CTAGGCGC, the “PBM E-score” value rises from -0.103 to -0.0811.

Going from CGAGTCAG to CTATACCA, the “PBM E-score” value rises from -0.0915 to -0.0415.

Going from AACTTGAT to AGTAGTAT, the “PBM E-score” value falls from 0.139 to 0.114.

Compared with GGACGTAC, ACAGCAGC is higher in “PBM E-score” value: -0.084 for the first, 0.0404 for the second.

Going from CACTCCAG to CAGCTGAG, the “PBM E-score” value rises from 0.0644 to 0.0994.

Compared with CAGATCCG, AAATAGCC is lower in “PBM E-score” value: 0.0649 for the first, -0.1 for the second.

Going from CACAACTG to CTTGGAAC, the “PBM E-score” value rises from -0.133 to -0.0743.

Compared with GGCAGCAC, CGATGTTC is higher in “PBM E-score” value: -0.0882 for the first, -0.0442 for the second.

Compared with GGTCCGGA, GAACAAGA is higher in “PBM E-score” value: -0.0171 for the first, 0.153 for the second.

First: ATTGGTGC
Second: GCGGCGCA
The “PBM E-score” value of the first is higher: -0.00397 for the first, -0.0311 for the second.

First: TAATAATA
Second: CTATACAA
The “PBM E-score” value of the first is higher: 0.0963 for the first, -0.0419 for the second.

Compared with CGGAGCGC, GTTCTGAA is higher in “PBM E-score” value: -0.0834 for the first, 0.0613 for the second.

Going from CAGCACCA to TAGGCTCA, the “PBM E-score” value falls from -0.131 to -0.234.

Going from TCTTGACA to ACTAAGTG, the “PBM E-score” value falls from 0.1 to 0.0198.

Going from CGGGCGTA to CGGTCTAA, the “PBM E-score” value falls from -0.117 to -0.118.

Compared with GAGGAGCA, ATCGTTTC is higher in “PBM E-score” value: -0.186 for the first, 0.00418 for the second.

First: CCAGAACA
Second: AAAACTAG
The “PBM E-score” value of the first is higher: 0.106 for the first, 0.0557 for the second.

Compared with GCAAAGCC, CACGGTAC is higher in “PBM E-score” value: -0.268 for the first, -0.212 for the second.

First: CATTATCC
Second: AAAGATGG
The “PBM E-score” value of the first is higher: 0.223 for the first, -0.0587 for the second.

Going from GCGTTCTA to GAGCATGA, the “PBM E-score” value falls from 0.101 to -0.0488.

First: GAAGTATA
Second: CCTGCACC
The “PBM E-score” value of the first is higher: 0.187 for the first, -0.117 for the second.

First: CAATCTGA
Second: CAGCTCAC
The “PBM E-score” value of the first is higher: 0.00996 for the first, -0.161 for the second.

First: CTTTGTCC
Second: ACCCCGCC
The “PBM E-score” value of the first is lower: 0.044 for the first, 0.0999 for the second.

Going from ACCAACAG to CCCGCCCA, the “PBM E-score” value rises from -0.00807 to 0.0878.

Going from AACCTGGT to ACTAGCCT, the “PBM E-score” value rises from -0.00766 to 0.0986.

Going from ACACCCCT to ACCAGGAA, the “PBM E-score” value rises from 0.00269 to 0.0925.

— the supplement of paper PMC3334620
